From publication PMC5608947
Results are given in words; binding and its absence hold for the method and conditions named. In cells and extracts the contact can be indirect. Some entries that bind do so weakly or less than the wild type.

The chains behind the UniProt entries cited, without tags or fusion partners. Where a name states a change or a piece, a line headed by the entry shows the natural chain unless it says otherwise.
UniProt P56546: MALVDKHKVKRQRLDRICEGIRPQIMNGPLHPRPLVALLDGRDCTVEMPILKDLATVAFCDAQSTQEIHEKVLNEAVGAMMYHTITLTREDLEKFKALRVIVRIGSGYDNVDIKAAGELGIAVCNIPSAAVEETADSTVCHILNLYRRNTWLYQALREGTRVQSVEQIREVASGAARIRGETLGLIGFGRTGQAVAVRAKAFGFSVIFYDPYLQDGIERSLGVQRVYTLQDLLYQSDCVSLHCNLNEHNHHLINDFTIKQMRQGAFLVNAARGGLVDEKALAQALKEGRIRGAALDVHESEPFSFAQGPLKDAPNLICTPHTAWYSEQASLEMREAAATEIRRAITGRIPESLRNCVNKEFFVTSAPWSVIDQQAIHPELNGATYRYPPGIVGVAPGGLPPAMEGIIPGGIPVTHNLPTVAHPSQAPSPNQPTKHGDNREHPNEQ
UniProt Q09472: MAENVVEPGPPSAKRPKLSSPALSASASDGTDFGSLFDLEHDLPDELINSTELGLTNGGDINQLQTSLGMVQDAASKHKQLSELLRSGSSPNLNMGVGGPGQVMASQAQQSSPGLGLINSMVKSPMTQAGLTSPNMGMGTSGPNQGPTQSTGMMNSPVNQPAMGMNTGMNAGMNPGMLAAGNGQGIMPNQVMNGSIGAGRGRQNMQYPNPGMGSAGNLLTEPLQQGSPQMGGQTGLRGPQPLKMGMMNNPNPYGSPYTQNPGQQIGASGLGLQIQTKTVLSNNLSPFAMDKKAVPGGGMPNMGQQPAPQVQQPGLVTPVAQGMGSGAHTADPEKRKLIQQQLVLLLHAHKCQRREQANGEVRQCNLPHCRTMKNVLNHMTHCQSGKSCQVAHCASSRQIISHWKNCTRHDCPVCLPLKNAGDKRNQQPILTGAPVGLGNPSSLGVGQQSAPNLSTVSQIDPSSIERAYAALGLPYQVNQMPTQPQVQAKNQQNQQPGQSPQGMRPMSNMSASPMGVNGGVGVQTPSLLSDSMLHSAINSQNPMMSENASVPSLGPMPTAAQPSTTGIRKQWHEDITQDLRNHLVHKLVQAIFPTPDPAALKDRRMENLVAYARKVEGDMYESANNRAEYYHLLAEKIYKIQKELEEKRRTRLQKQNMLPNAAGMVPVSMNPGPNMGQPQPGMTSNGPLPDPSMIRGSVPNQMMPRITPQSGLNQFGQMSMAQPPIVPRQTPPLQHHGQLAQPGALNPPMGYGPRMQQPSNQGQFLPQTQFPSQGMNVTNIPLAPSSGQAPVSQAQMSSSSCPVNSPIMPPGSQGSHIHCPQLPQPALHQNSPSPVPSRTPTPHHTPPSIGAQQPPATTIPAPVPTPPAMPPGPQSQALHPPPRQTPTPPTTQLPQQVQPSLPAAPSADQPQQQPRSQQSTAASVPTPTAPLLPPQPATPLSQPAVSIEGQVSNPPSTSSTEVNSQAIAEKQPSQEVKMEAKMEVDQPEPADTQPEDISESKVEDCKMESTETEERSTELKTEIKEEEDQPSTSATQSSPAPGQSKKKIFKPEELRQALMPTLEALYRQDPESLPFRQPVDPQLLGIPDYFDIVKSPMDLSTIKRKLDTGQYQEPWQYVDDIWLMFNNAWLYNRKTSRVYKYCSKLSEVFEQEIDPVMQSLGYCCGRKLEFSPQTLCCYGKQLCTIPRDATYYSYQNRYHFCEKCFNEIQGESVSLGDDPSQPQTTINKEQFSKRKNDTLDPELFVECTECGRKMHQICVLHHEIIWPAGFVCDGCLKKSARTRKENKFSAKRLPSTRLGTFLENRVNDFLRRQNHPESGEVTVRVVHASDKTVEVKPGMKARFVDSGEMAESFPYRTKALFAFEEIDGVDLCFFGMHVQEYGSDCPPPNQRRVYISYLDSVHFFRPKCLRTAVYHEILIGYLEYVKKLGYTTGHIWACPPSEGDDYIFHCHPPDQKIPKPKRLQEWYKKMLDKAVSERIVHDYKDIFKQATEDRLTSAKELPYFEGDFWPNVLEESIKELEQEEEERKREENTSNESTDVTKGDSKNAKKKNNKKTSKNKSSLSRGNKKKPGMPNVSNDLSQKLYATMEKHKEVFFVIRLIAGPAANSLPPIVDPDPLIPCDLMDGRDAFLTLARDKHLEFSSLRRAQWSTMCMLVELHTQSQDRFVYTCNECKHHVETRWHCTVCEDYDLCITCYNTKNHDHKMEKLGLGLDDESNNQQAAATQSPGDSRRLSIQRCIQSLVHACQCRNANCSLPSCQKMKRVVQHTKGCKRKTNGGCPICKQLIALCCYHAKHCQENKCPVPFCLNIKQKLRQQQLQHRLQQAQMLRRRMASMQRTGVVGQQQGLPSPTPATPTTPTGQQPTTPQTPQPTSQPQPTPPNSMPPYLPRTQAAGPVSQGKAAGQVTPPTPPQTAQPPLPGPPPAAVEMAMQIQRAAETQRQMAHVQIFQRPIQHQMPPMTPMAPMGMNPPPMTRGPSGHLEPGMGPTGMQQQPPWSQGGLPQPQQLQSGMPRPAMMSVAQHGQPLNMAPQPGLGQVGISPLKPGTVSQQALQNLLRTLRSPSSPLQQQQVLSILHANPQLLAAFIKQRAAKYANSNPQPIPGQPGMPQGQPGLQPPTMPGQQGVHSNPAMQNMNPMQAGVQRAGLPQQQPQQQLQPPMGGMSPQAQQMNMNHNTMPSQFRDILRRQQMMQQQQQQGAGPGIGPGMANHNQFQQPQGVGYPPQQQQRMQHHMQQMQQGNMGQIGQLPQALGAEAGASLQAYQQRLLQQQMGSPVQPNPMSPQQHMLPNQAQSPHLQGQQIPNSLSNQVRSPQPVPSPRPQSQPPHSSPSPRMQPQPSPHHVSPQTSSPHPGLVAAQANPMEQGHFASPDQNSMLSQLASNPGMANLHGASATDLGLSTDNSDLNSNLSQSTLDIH

Tests used:
[1] = biological target: CtBP1 (C-terminal binding protein 1), mouse, full length, HA-tagged and Flag-tagged copies (mouse) (UniProt O88712); test: co-IP; as the untreated control, but the lysate was incubated with 10 mM sodium lactate + 10 µM NADH at 37 °C for 20 min before IP, to promote CtBP dimerization; IP with anti-Flag, blot with anti-HA
[2] = biological target: CtBP1 (C-terminal binding protein 1), mouse, full length, HA-tagged and Flag-tagged copies (mouse) (UniProt O88712); test: co-IP; COS7 cells co-transfected with CtBP1-HA and CtBP1-Flag; NP-40 buffer lysate, untreated control, incubated at 37 °C for 20 min; IP with anti-Flag M2 antibody and protein A/G-Sepharose, blot with anti-HA
FLAG-tagged G189A CtBP2 = FLAG-tagged G189A CtBP2 (UniProt P56546); test: co-IP; HEK293 cells transfected with FLAG-tagged WT CtBP2 or G189A CtBP2, untreated or treated with 2DG or CoCl2 for 30 min; M-PER lysate with benzonase; anti-Flag M2 agarose overnight; p300 detected in the immunoprecipitate and normalized to p300 in the lysate input
[3] = biological target: FLAG-tagged wild-type CtBP2 (UniProt P56546); test: as above

binding [1] | binding [2] | binding (FLAG-tagged G189A CtBP2) | binding [3] | Substance
binds | binds weakly | – | – | CtBP1 (C-terminal binding protein 1), mouse, full length, HA-tagged and Flag-tagged copies (from UniProt O88712 1-441)
– | – | binds | binds | p300 (acetyltransferase p300) (from UniProt Q09472 1-2414)
